For three molecules, binding results are on record in patent US7015190B1, “Method for enhancing long-term memory in a subject and uses thereof” (The Trustees of Columbia University in the City of New York, priority 1996, dated 2006).

Sequences of proteins named here, by UniProt entry; tags and fusion partners are left off. A change or cut given only in a name is not applied to a line headed by its entry. A line that says so, or that is headed by a name, gives the form on record, which may keep a tag or linker.
rat CREB-1 (P15337, form named): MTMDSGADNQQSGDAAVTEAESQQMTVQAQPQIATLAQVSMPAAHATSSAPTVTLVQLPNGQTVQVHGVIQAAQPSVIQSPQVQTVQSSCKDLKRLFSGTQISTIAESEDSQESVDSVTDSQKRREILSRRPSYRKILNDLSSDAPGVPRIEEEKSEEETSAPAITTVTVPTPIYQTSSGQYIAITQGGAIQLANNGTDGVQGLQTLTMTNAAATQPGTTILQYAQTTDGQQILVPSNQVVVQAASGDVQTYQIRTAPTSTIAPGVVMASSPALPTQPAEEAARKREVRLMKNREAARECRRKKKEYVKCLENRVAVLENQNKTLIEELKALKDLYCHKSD

No constants are given. Whether binding was seen depends on the method and setting. Some binding calls cover weakened binding; strength is not graded here. For some of these results: Where a sequence is shown, tags or fusion partners need not be part of it.

Experiment [1] deals with rat CREB-1 (rat) (UniProt P15337). The experiment in a line: in vitro heterodimer formation, method not detailed.
Experiment [2] shares this target. As to the kind of experiment: in vitro heterodimer formation on a CRE.
Experiment [3] shares this target. The experiment in a line: yeast two-hybrid.

B1: ApCREB-2 (Aplysia californica bZIP transcription factor, full-length 378 amino acid protein) (protein)
chain: MELDLWSEDFQLAREWGLEMPVVQTDGQFGDLKSTSRHGGDESLSLQPQGATLKLEPFEEDVLGAEWMESSDLGSFLDALGDNHERLHPFESNLLEFTSLITPDDSTVSKDILSSTLQFPTQPVNIPLYASHGAEDFSAETEFENHLSPPDSPEQVAPVINLEPVELTASHMTVISPDGLLGGMELASESLTFTELDFVNFNDSAVGSIGGAEELLGSPLSVDDVESTISFSGPSSPETSQSSIIESSPELYKVISTSSIDASKRFSPYSRSSKSKQSVKTSDAKAPRKTRTPAQPVPEHVIMEHLDKKDRKKLQNKNAAIRYRMKKKGEAQGIKGEEQELEELNTKLKTKVDDLQREIKYMKNLMEDVCKAKGIQLKM
As for B1, the binding entry with rat CREB-1 (rat) [1] and with rat CREB-1 (rat) [2] was “binds” in each case.

B2: full-length ApCREB-2 as two-hybrid fusion (pGAD10 clone; pAS1 / pACT2 subclones) (protein, not shown: large carriers)
chain: MELDLWSEDFQLAREWGLEMPVVQTDGQFGDLKSTSRHGGDESLSLQPQGATLKLEPFEEDVLGAEWMESSDLGSFLDALGDNHERLHPFESNLLEFTSLITPDDSTVSKDILSSTLQFPTQPVNIPLYASHGAEDFSAETEFENHLSPPDSPEQVAPVINLEPVELTASHMTVISPDGLLGGMELASESLTFTELDFVNFNDSAVGSIGGAEELLGSPLSVDDVESTISFSGPSSPETSQSSIIESSPELYKVISTSSIDASKRFSPYSRSSKSKQSVKTSDAKAPRKTRTPAQPVPEHVIMEHLDKKDRKKLQNKNAAIRYRMKKKGEAQGIKGEEQELEELNTKLKTKVDDLQREIKYMKNLMEDVCKAKGIQLKM
For the molecule B2, the binding result with rat CREB-1 (rat) [3] was “binds”.

B3: ApCREB-2 C-terminal 118 amino acid peptide (amino acids 260-378, bZIP motif) as two-hybrid fusion (protein, not shown: large carriers)
chain: IDASKRFSPYSRSSKSKQSVKTSDAKAPRKTRTPAQPVPEHVIMEHLDKKDRKKLQNKNAAIRYRMKKKGEAQGIKGEEQELEELNTKLKTKVDDLQREIKYMKNLMEDVCKAKGIQLK
B3: in the experiment with rat CREB-1 (rat) [3], the binding result is “binds”.
